What all share (assay): fluorescence polarization
The target in data set [1] is T1, His-KlRad5 F326A (Kluyveromyces lactis) (UniProt Q6CJM4).
T1 sequence (looked up): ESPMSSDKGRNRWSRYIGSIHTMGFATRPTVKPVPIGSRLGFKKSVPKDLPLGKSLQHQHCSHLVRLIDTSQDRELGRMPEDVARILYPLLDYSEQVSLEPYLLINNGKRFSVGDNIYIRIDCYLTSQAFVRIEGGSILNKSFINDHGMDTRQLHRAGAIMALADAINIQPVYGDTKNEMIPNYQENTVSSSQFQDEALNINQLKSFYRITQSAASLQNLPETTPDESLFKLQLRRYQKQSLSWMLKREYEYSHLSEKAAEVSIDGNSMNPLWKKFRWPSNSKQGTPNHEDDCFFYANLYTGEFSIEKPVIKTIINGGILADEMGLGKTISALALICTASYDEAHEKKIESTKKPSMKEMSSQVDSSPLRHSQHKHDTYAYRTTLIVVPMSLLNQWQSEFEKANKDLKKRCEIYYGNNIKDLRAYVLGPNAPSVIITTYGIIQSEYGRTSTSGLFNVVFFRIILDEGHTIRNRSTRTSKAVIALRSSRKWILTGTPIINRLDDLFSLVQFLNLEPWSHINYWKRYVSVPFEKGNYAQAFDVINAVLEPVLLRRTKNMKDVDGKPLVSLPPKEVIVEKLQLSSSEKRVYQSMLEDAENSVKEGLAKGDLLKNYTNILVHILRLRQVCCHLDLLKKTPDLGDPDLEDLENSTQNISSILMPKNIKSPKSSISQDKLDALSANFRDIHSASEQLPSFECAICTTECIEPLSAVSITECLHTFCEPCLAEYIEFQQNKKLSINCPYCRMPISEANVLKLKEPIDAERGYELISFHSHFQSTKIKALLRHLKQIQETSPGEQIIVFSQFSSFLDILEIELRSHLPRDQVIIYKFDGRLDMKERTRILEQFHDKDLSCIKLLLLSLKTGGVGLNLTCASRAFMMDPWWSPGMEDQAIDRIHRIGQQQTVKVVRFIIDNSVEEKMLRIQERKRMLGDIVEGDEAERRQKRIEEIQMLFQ
Conditions: FP: 20 mM Tris pH 7.5, 50 mM (dsDNA, KlHIRAN) or 70 mM (ssDNA) NaCl, 2 mM MgCl2, 1 nM DNA, room temp, recombinant protein, residues 163-1114, protein details: N-terminal His6, label: 5'-FAM.

The target in data set [2] is T2, His-KlRad5 I322A (Kluyveromyces lactis) (UniProt Q6CJM4).
T2 sequence (looked up): T1 sequence (looked up) with I160A, A164F
Conditions: FP: 20 mM Tris pH 7.5, 50 mM (dsDNA, KlHIRAN) or 70 mM (ssDNA) NaCl, 2 mM MgCl2, 1 nM DNA, room temp, recombinant protein, residues 163-1114, protein details: N-terminal His6, label: 5'-FAM.

The target in data set [3] is T3, KlRad5 R1000E (Kluyveromyces lactis) (UniProt Q6CJM4).
T3 sequence (looked up): T1 sequence (looked up) with A164F, R838E
The following applies: 50 mM NaCl; FP: 20 mM Tris pH 7.5, 50 mM (dsDNA, KlHIRAN) or 70 mM (ssDNA) NaCl, 2 mM MgCl2, 1 nM DNA, room temp; recombinant protein; residues 163-1114; label: 5'-FAM.

Where a chain is given by its changes, count along the chain named. The comparison behind a weaker result is the experiment's own reference, which may not be listed here. Where a protein sequence is shown, tags need not be part of it. For some assays here: For at least one entry, the source does not settle the construct or the ends of the probe. For some assays here: At least one verdict was read from the data and is not stated in words by the source.

The results in this text go back to PMC7804152, “Structural basis for the multi-activity factor Rad5 in replication stress tolerance”.

As for “ACCAGTGCCAGTGAT (double strand) [D2a/D2b dsDNA]”, the binding result in data set [1], in data set [2] and in data set [3] was “binds more weakly” throughout.
Consider “TTTTTTTCGTCTTCGGCAATTTTTT [S1 ssDNA, 5'-FAM]”, for which the binding result in data set [1] (single-stranded DNA) and in data set [2] (single-stranded DNA) was “binds more weakly” throughout.
